Here are results for one compound from PubChem BioAssay AID1224863 (Southern Research Institute, 2016).

By UniProt entry, the sequences of proteins in these tests, tags left out. Chains listed by the source or under a name are the forms on record and can include a tag or linker.
UniProt P13569, with tags, fused parts or gaps F508del: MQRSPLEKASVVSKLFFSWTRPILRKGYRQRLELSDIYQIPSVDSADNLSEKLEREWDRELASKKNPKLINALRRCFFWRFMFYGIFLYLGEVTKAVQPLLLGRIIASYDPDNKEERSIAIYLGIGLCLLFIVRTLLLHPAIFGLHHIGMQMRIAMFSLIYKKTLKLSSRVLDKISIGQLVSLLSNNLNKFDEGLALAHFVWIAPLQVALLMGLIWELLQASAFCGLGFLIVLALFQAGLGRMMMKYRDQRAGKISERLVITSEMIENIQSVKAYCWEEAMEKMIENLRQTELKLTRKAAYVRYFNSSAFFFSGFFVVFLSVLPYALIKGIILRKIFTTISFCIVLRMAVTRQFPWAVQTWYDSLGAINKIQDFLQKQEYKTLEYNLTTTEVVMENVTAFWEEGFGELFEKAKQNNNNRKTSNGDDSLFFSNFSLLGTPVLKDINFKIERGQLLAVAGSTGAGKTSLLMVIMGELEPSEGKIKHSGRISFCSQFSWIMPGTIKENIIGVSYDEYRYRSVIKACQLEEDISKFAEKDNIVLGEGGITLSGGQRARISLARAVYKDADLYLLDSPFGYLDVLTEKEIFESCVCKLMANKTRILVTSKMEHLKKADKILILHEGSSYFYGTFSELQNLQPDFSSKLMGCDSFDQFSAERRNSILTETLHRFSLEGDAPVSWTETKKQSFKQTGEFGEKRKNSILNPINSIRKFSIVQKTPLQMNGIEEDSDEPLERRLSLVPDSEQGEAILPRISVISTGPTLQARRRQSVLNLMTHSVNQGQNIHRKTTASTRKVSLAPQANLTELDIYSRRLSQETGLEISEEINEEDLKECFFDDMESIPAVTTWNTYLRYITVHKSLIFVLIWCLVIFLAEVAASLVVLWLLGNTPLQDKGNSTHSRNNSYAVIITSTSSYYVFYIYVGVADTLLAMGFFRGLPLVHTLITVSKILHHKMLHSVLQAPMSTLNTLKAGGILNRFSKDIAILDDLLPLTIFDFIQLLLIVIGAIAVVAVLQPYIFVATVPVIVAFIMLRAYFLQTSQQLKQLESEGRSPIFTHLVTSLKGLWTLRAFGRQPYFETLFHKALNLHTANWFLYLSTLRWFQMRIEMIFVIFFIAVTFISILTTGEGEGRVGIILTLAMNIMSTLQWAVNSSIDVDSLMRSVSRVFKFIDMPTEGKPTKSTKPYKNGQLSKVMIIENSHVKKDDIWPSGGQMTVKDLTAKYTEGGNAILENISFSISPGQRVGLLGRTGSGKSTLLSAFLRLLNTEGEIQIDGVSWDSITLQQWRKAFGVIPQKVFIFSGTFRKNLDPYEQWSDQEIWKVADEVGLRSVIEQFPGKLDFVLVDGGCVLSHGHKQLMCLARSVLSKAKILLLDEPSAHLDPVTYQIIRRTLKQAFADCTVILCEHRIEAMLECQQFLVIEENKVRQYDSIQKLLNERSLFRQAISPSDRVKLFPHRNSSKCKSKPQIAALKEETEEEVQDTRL

This is one part of the list.

Test [1] in a line: total CFTR protein upregulators, primary screen, cell-based, HeLa F508del-CFTR, immunofluorescence, viability (AID 1224863).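 As to fold increase: total CFTR protein by anti-CFTR immunofluorescence in fixed cells.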 The following applies: 24 h, stronger effect = higher value; min viability: measured here: HeLa viability, alamarBlue, dose 50, library dosed in µM; viability: measured here: primary viability 25 uM, at 25 µM, library dosed in µM.
Test [2] has as its target Cystic fibrosis transmembrane conductance regulator (Homo sapiens) (UniProt P13569). Described as above. As to conditions: 24 h, measured here: primary screen single dose 25 uM, at 25 µM, library dosed in µM, stronger effect = higher value.

In test [1], `CN(CCCl)CCCl` had a min viability of 6.58% and a viability of 63%. The compound also returned a fold increase in test [2] of 1.55.
